PubChem BioAssay AID1259405, NCATS – 2018

- Aim: 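Mouse-designed siRNAs used to find CHO productivity engineering targets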 (primary screen)
- System: Chinese hamster CHO-K1 ovary cells with stable secreted eGFP expression
- Reagent: single siRNA against mouse genes, 0.8 pmol siRNA per well (2 µl of 400 nM stock)
- Duration: 3 days
- Read-out: 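Percent of the per-plate non-targeting control median for intracellular GFP per well by laser scanning cytometry and for cell viability by ATP luminescence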
- Reading the numbers: GFP, % of control: higher = more GFP per well, higher productivity; viability (ATP), % of control: higher = more viable cells (more ATP)
- Active means: 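Called active when intracellular GFP, relative to negative control, is at or above 120%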
In all, the deposit lists about 50,000 reagents; below is a part drawn at random. About 4,000 of all reagents (8%) were called active. 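Mouse siRNA library applied to hamster cells; one well for each siRNA.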 Entries without a mark were called inactive. Reagents against one gene are numbered here.

With knock-down of Agr2 #1, the record shows GFP, % of control 77; viability (ATP), % of control 64.7. With knock-down of Agr2 #2, the record shows GFP, % of control 103; viability (ATP), % of control 72.4. Against Agr2 #3 the deposit lists GFP, % of control 62.2; viability (ATP), % of control 83.5. After knock-down of Cldn4 #1 the results were GFP, % of control 44.7; viability (ATP), % of control 55.3. With knock-down of Cldn4 #2, the screen gave GFP, % of control 69.8; viability (ATP), % of control 66.3. Cldn4 #3 gave GFP, % of control 59; viability (ATP), % of control 77.6.

Against Or8g2b #1, the values are GFP, % of control 85; viability (ATP), % of control 56.7. Or8g2b #2 scored GFP, % of control 88.6; viability (ATP), % of control 78.4. For Or8g2b #3, the values are GFP, % of control 60.1; viability (ATP), % of control 47.2. Against Clock #1, the entry reads GFP, % of control 75.1; viability (ATP), % of control 74.1. Clock #2 gave GFP, % of control 48.2; viability (ATP), % of control 61.4. Clock #3 scored GFP, % of control 100; viability (ATP), % of control 108.

Depletion of Adamts2 #1 gave: GFP, % of control 91.9; viability (ATP), % of control 89.2. For Adamts2 #2, the values are GFP, % of control 79.6; viability (ATP), % of control 64.5. Against Adamts2 #3 the deposit lists GFP, % of control 64.7; viability (ATP), % of control 60.4. With knock-down of E230016K23Rik #1, the record shows GFP, % of control 89.4; viability (ATP), % of control 113. Against E230016K23Rik #2, the values are GFP, % of control 87.7; viability (ATP), % of control 106. Against E230016K23Rik #3 the deposit lists GFP, % of control 58; viability (ATP), % of control 38.5.

Quoted from the entries so far, 3 entries:
Cldn4 #3 | GFP, % of control = 59; viability (ATP), % of control = 77.6
Or8g2b #1 | GFP, % of control = 85; viability (ATP), % of control = 56.7
Or8g2b #2 | GFP, % of control = 88.6; viability (ATP), % of control = 78.4
